US9494592B2, “Reaction-based fluorescent probes for sulfane sulfur and the application in bioimaging” (Washington State University, priority 2013, dated 2016)

Experiment: Fluorescence response of probes to Na2S2 (H2S2 equivalent) in PBS buffer with CTAB
Conditions: probe 5.0 μM, Na2S2 0.5 to 25 μM, 10 min, 50 mM PBS, 1 mM CTAB
Experimental: The stock solution of SSP1 (1 mM) and SSP2 (1 mM) were prepared in CH3CN, respectively. The solutions of various testing species were prepared from Cysteine (Cys), GSH, Homocysteine (Hcy), Glutathione disulfide (GSSG), Na2S.9H2O, Na2S2O3, Na2SO3, Na2SO4, Na2S2 in 50 mM PBS buffer. The stock solution of Cetrimonium bromide (CTAB, 100 mM) and S8 (10 mM) were prepared in EtOH, respectively. The stock solution of Cys-polysulfide (10 mM) was prepared in CH3CN. All the test solution need to be freshly prepared.
Unless otherwise noted, all the measurements were carried out for 10 min at 25° C. in 50 mM PBS buffer (pH 7.4) with 1 mM CTAB according to the following procedure. In a test tube, 3.5 mL of 50 mM PBS buffer (pH 7.4) and 40 μL of the stock solution of CTAB were mixed, and then added 20 μL of the stock solution of SSP1 or SSP2. The resulting solution was mixed well, followed by addition of a requisite volume of testing species sample solution. The final volume of the reaction solution was adjusted to 4 mL with 50 mM PBS buffer (pH 7.4). After mixing and then standing for 10 min at room temperature, a 4-mL portion of the reaction solution was transferred into a 1-cm quartz cell to measure fluorescence with λex=380 nm (for SSP1) or 482 nm (SSP2). In the meantime, a blank solution containing no testing species sample was prepared and measured under the same conditions for comparison. […]

| SMILES | detection limit [nM] |
| --- | --- |
| O=C(Oc1ccc2ccc(=O)oc2c1)c1ccccc1S [SSP1] | 73 |
| COc1ccc2c(c1)Oc1cc(OC(=O)c3ccccc3S)ccc1C21OC(=O)c2ccccc21 (centres unmarked) [SSP2] | 32 |
